Experimental data: PubChem BioAssay AID652259 (Drosophila RNAi Screening Center, 2013)

Screen: 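Identify new Wingless signalling regulators in fly cells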 (primary screen)
Cells: Drosophila clone 8 imaginal disc epithelial cells
Reagent: long dsRNA against Drosophila genes
Challenge: pathway stimulated by co-transfected Wingless expression plasmid
Detection: 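Dual luciferase reads per well after Wingless plasmid stimulation: reporter firefly light and Renilla control light; activity is firefly divided by Renilla, a ratio not deposited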
Direction: firefly reporter light: higher = more Wg reporter light, before normalisation; Renilla control light: higher = more transfected or surviving cells
Call rule: 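a knock-down is a candidate when at least two out of four statistical tests show it departing from its plate mean; one test alone signals a weak candidate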
Meaning of the calls: active = candidate regulator (raises or lowers reporter); inactive = not a candidate
The deposit covers about 22,000 reagents; shown is a random part of those with a known target gene and a result. In the full data, 233 (1.1%) are marked active. 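Light values are raw, unnormalised plate reads; the ratio scores behind the reporter calls were not deposited.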 A number with no mark means an inactive call. Not stated in the record: the amount of reagent, the time to read-out, the dose of the treatment.

| gene | DRSC id | reporter change call, replicate 1 | firefly reporter light, replicate 1 | firefly reporter light, replicate 2 | Renilla control light, replicate 1 | Renilla control light, replicate 2 |
| --- | --- | --- | --- | --- | --- | --- |
| CG15435 | DRSC00450 | – | 1241 | 2620 | 310 | 1274 |
| CG10947 | DRSC02111 | – | 11360 | – | 3969 | – |
| CG13847 | DRSC14697 | Wg reporter activity raised (active) | 3752 | 8134 | 476 | 653 |
| tgy | DRSC20045 | – | 12501 | – | 7702 | – |
| mei-S332 | DRSC04704 | – | 11568 | – | 3139 | – |
| GckIII | DRSC15729 | – | 12549 | – | 2064 | – |
| CG12723 | DRSC19499 | – | 23315 | 7.34e5 | 11513 | 3.22e5 |
| Gyc32E | DRSC01154 | – | 16108 | – | 7741 | – |
| CG8157 | DRSC07085 | – | 11880 | – | 4653 | – |
| CG8157 | DRSC21595 | – | 9.47e5 | 8.39e5 | 4.65e5 | 4.15e5 |
| Spt20 | DRSC10280 | Wg reporter activity raised (active) | 7360 | – | 752 | – |
| CG30048 | DRSC22205 | – | 4.42e5 | 5.33e5 | 1.94e5 | 2.24e5 |
| CG11307 | DRSC11648 | – | 12114 | 8.25e5 | 5750 | 4.15e5 |
| l(2)SH0834 | DRSC02854 | – | 2226 | 6288 | 717 | 2411 |
| rngo | DRSC19903 | – | 5143 | – | 1226 | – |
| Est-6 | DRSC11162 | – | 5449 | – | 2391 | – |
| CG6325 | DRSC16020 | – | 6437 | – | 1853 | – |
| Ccs | DRSC06692 | – | 2459 | 5369 | 810 | 1959 |

The list goes on, starting with the last 3 of the part before.
| gene | DRSC id | reporter change call, replicate 1 | firefly reporter light, replicate 1 | firefly reporter light, replicate 2 | Renilla control light, replicate 1 | Renilla control light, replicate 2 |
| --- | --- | --- | --- | --- | --- | --- |
| Est-6 | DRSC11162 | – | 5449 | – | 2391 | – |
| CG6325 | DRSC16020 | – | 6437 | – | 1853 | – |
| Ccs | DRSC06692 | – | 2459 | 5369 | 810 | 1959 |
| Gr58c | DRSC04136 | – | 1548 | 5892 | 597 | 2026 |
| CG14852 | DRSC14976 | – | 13339 | – | 3206 | – |
| Taf7 | DRSC15445 | Wg reporter activity raised (active) | 34483 | – | 2956 | – |
| PIG-C | DRSC08241 | – | 4369 | – | 2018 | – |
| CG13728 | DRSC10056 | – | 6920 | – | 2816 | – |
| CG3748 | DRSC02716 | – | 2923 | 5425 | 837 | 2912 |
| mira | DRSC16998 | – | 2896 | 6771 | 1879 | 2378 |
| Poxn | DRSC05589 | – | 23617 | – | 19557 | – |
| Poxn | DRSC07512 | – | 6423 | – | 3200 | – |
| Rb97D | DRSC16815 | Wg reporter activity raised | 7210 | – | 1526 | – |
| CG6059 | DRSC15958 | – | 1757 | 5521 | 1068 | 2004 |
| Pngl | DRSC04914 | – | 3686 | 9027 | 1315 | 3123 |
| CTCF | DRSC11004 | – | 4363 | – | 1072 | – |
| CG14567 | DRSC11728 | – | 15384 | – | 5156 | – |
| CG33095 | DRSC14441 | – | 14688 | – | 11809 | – |
| CG12134 | DRSC06109 | – | 3177 | 7984 | 467 | 3153 |
| tapas | DRSC05950 | – | 9409 | – | 2251 | – |
| CG11857 | DRSC14411 | – | 13560 | – | 13308 | – |
| Trx2 | DRSC03622 | – | 4280 | 8883 | 1254 | 3811 |
| CR30409 | DRSC22058 | – | 3.92e5 | 4.28e5 | 1.53e5 | 1.65e5 |
| Ced-12 | DRSC02840 | – | 2807 | 7835 | 1147 | 2304 |
| Vha14-2 | DRSC12145 | – | 18364 | – | 3856 | – |
| Sod1 | DRSC11286 | – | 6653 | – | 2812 | – |
| CG7031 | DRSC16178 | Wg reporter activity raised (active) | 25335 | – | 4121 | – |
| CG31678 | DRSC02618 | – | 12967 | – | 3176 | – |
| CG31678 | DRSC02619 | – | 2324 | 7208 | 843 | 2755 |
| CG14627 | DRSC18630 | – | 20769 | – | 9993 | – |
| srw | DRSC08201 | – | 4763 | – | 1869 | – |
| Crk | DRSC17163 | – | 3556 | 8342 | 1450 | 4117 |
| Drsl4 | DRSC08034 | – | 2264 | – | 1177 | – |
| CG9849 | DRSC04573 | – | 3216 | 8333 | 1266 | 3888 |
